Hit rate of the full screen: of about 360,000 compounds, about 610 (0.17%) were called active. Inconclusive results, whose numbers are uncertain, are shown with a selection of clear calls. Cut-off read from the data, not from the text of the source: active = inhibition above about 30%; inconclusive = no clear call, values can overlap the other calls; inactive = below that.
Each molecule was assayed on Botulinum neurotoxin type A light chain protease (Clostridium botulinum A str. ATCC 3502) (assay: blockers of BoNT/A LC substrate cleavage – biochemical, flow cytometry, MLPCN library, primary screen (AID 588499; note: plate controls were buffer without enzyme for full effect and enzyme alone for no effect)). Settings: multiplex microsphere protease substrate cleavage, at 10 µM, active compounds read high.
`CCCn1c(=O)c2[nH]cnc2n(-c2ccccc2C)c1=O` was tested, and the inhibition was inconclusive: 8.2%. In the case of `CCN(CC)c1nc2ccccc2nc1C(C#N)C(=O)NCCCOC` (configuration not stated), the inhibition is reported as inactive: 6.1%. For `Cc1nc2c(C(=O)NCc3ccco3)cnn2c(C)c1Cc1ccc(F)cc1Cl`, the inhibition was inconclusive: 4.6%. `CCn1ncc(C2=NOC(C(=O)Nc3cccc(C(C)=O)c3)C2)c1C` (configuration not stated) was tested, and the inhibition was inconclusive: 2.1%. With `Cc1ccc(C)c(CSc2nnc(-c3cccnc3)o2)c1` the inhibition was inconclusive: -2.4%. `CCN1CCC(O)(/C=C/c2ccc(C(C)C)cc2)C(C(=O)/C=C/c2ccc(C(C)C)cc2)C1` (configuration not stated) was tested, and the inhibition was inactive: -0.2%. For `CC(C)CCN1C(=O)c2ccc(C(=O)N3CCCCC3)cc2C1=O`, the inhibition was inconclusive: -6.4%. For `O=C(CCn1c(SCC(=O)c2ccccc2)nc2ccccc2c1=O)NCc1ccc(F)cc1`, the inhibition was inconclusive: -0.5%. For `COc1ccc(CN2CCCCCC2)c(C)c1C`, the inhibition was inconclusive: 2.9%. In the case of `Cc1ccc(C(=O)Nc2cc(=O)n(C)c(=O)n2C)o1`, the inhibition is reported as inconclusive: -0.9%. With `COc1ccc(OC)c(N(CC(=O)Nc2ccccc2F)S(=O)(=O)c2ccccc2)c1` the inhibition was inconclusive: 1%. For `CC(=O)c1c(C)[nH]c(C(=O)Nc2cccnc2)c1C`, the inhibition was inconclusive: -0.1%. In the case of `COc1ccc(-c2cc(-c3nnc(COC(=O)CC4CC5CCC4C5)o3)c3ccccc3n2)cc1OC` (configuration not stated), the inhibition is reported as active: 51.8%. `Cc1ccc(C(=O)O/N=C2\CC3CCC2(C)C3(C)C)cc1` (configuration not stated) was tested, and the inhibition was inconclusive: 2%. In the case of `O=c1oc2c3c4c(cc2c2c1CCC2)OCCN4CCC3`, the inhibition is reported as inconclusive: 4.9%. In the case of `COC(=O)c1ccccc1NC(=O)Oc1ccc(F)cc1`, the inhibition is reported as inactive: -1.2%. With `CCc1ccc(-c2nc(CN3CCCC(C(=O)NCCc4ccc(OC)c(OC)c4)C3)c(C)o2)cc1` (configuration not stated) the inhibition was inconclusive: 0.6%. With `Cc1cccc(N(CC(=O)NC2CCCC2)C(=O)CS(=O)CC(=O)Nc2ccc3c(c2)OCO3)c1` (configuration not stated) the inhibition was inconclusive: -10.3%. With `CC(C)COc1ccc(C(=O)NC(Cc2c[nH]c3ccccc23)C(=O)NN)cc1` (configuration not stated) the inhibition was inconclusive: 11%. In the case of `CC1=[N+](C)c2c(ccc3cccnc23)C1(C)C`, the inhibition is reported as inconclusive: 31%. `COCc1cn(CC(=O)c2sc(NC(=O)C(C)(C)C)nc2C)nn1` was tested, and the inhibition was inactive: 0.9%. With `CCOC(=O)c1cc2c(=O)n3ccccc3nc2n(Cc2ccco2)c1=NC(=O)c1ccccc1OCC` the inhibition was inactive: 3.5%. For `CCOC(=O)c1ccc(NC(=O)NCCc2cnc[nH]2)cc1`, the inhibition was inactive: -3.4%. In the case of `CS(=O)(=O)c1cnc2c(-c3ccc(F)cc3)cnn2c1N`, the inhibition is reported as inconclusive: -0.5%. `CC(NCCN(C)C)C1CCC2C3CCc4cc(O)ccc4C3CCC12C` (configuration not stated) was tested, and the inhibition was inactive: 0.1%. In the case of `O=C(c1ccc(-n2cncn2)c([N+](=O)[O-])c1)N1CCN(S(=O)(=O)c2cccc(F)c2)CC1`, the inhibition is reported as inconclusive: -4.9%. `Cc1cc2n(n1)SC(Nc1ccc(F)c(Cl)c1)N2` (configuration not stated) was tested, and the inhibition was inconclusive: -0.6%. In the case of `CN1CCN(/C=N/c2c(C#N)cnn2Cc2ccccc2)CC1`, the inhibition is reported as inconclusive: -0.7%. `COC(=O)CSc1nc(SC)nc2c1sc1nc(-c3ccco3)c3c(c12)CC(C)(C)OC3` was tested, and the inhibition was inactive: 0.5%. For `CN(C)S(=O)(=O)c1cccc(NC(=O)c2cc(=O)[nH]c(=O)[nH]2)c1`, the inhibition was inactive: 1.1%. In the case of `Cc1csc(NC(=O)C2CCN(C(=O)CSc3nnc(C)n3Cc3ccccc3)CC2)n1`, the inhibition is reported as inconclusive: 0.2%. `COCCNc1ncnc2c1cnn2-c1ccc(Cl)cc1` was tested, and the inhibition was inconclusive: -0.8%. In the case of `Cc1cc2ccccc2n1CCNC(=O)C(C)Oc1ccccc1` (configuration not stated), the inhibition is reported as active: 78.8%. `O=C(Nc1ccccc1)OC1CCCCc2cccnc21` (configuration not stated) was tested, and the inhibition was inconclusive: -5%. With `CC(C)C(=O)Nc1ccc(C(=O)NNC(=O)CCCOc2ccc(Cl)cc2Cl)cc1` the inhibition was inconclusive: -3.3%. With `Cc1ccc(C(=O)NCCNc2ccc(Cl)cc2[N+](=O)[O-])o1` the inhibition was inconclusive: -1.8%. With `CCC(C)(C)C1CCC2(CC1)NC(=S)N(c1ccccc1)N2` (configuration not stated) the inhibition was inconclusive: -52%. With `Cc1nnsc1-c1onc(C)c1C(=O)O/N=C/c1ccc(Cl)cc1` the inhibition was inconclusive: -10.4%. With `CCOc1ccc(C2C3=C(CCCC3=O)OC(N)=C2[N+](=O)[O-])cc1` (configuration not stated) the inhibition was inconclusive: -5%. For `CC(=O)c1c(O)cc(C)n(Nc2nc(C)cc(C)n2)c1=O`, the inhibition was inconclusive: 1.2%. For `Cc1ccccc1CN1CCN(Cc2cc(=O)c3ccccc3[nH]2)CC1CCO` (configuration not stated), the inhibition was inactive: 5.5%. In the case of `O=C(Nc1ccc(F)cc1)c1sccc1SCc1cccc(C(F)(F)F)c1`, the inhibition is reported as inconclusive: -10.2%. In the case of `Cc1ccc(N2C(=O)C3C4CCC(O4)C3C2=O)c(OC(F)F)c1` (configuration not stated), the inhibition is reported as inconclusive: -5.1%. With `COc1ccc(/C=C/CN2CCC(C(=O)NC(c3ccc(F)cc3)c3ccc4ccccc4n3)CC2)cc1` (configuration not stated) the inhibition was inactive: -0.6%. `CC1(C(=O)Nc2ccccc2F)CCN1C(=O)Cc1cc(F)ccc1F` (configuration not stated) was tested, and the inhibition was inactive: 0.1%. In the case of `COc1ccc(CCNC(=O)CSCc2n[nH]c(=O)[nH]2)cc1OC`, the inhibition is reported as inconclusive: 0.3%. In the case of `CCOc1ccccc1NC(=O)C1CCCN(C(=O)NCc2ccccc2)C1` (configuration not stated), the inhibition is reported as inconclusive: -0.9%. `CC(C)n1cnc2cc(NCc3ccccc3O)ccc21` was tested, and the inhibition was inactive: -0.6%. For `COc1ccc[nH]c1=O`, the inhibition was inconclusive: -2.6%. With `Cc1nn(-c2ccc(F)cc2)c2sc(C(=O)OCC(=O)N3CCC(C)CC3)cc12` the inhibition was inconclusive: 4.7%. `Cn1cccc1C(=O)OCC(=O)c1cc2ccccc2o1` was tested, and the inhibition was inconclusive: 1.7%. In the case of `CCCOc1ccc(C2CC(=O)Nc3cc(OC)c(OC)cc32)cc1` (configuration not stated), the inhibition is reported as inconclusive: 8%. With `CCCCCCCSc1nnc(N)s1` the inhibition was inconclusive: 14.9%. In the case of `COc1ccccc1OCC(=O)Nc1ccc(S(=O)(=O)N2CCCC2)cc1`, the inhibition is reported as inactive: 0.4%. In the case of `Clc1ccccc1C1CC(c2ccccc2)=Nc2ccccc2N1` (configuration not stated), the inhibition is reported as inconclusive: 8%. With `NNC(=O)c1cc2c(ccc3ccccc32)o1` the inhibition was inactive: -0.4%. In the case of `O=C(NCc1cccc(Cl)c1)c1ccc2c(c1)OCO2`, the inhibition is reported as inconclusive: -0.1%. `Cc1cc2cc(CNC(=O)c3ccc4c(c3)OCO4)ccc2[nH]1` was tested, and the inhibition was active: 67%. `COc1cc(Cn2c3ccc(NC(=O)CCc4ccc(O)cc4)cc3c(=O)n2C)ccc1F` was tested, and the inhibition was inactive: 0.3%. For `O=C(Nc1ccc(S(=O)(=O)Nc2nccs2)cc1)c1nn(-c2ccccc2)ccc1=O`, the inhibition was inactive: 0%. `CC(C)OC(=O)c1c(NC(=O)CCn2nnc3ccccc32)sc2c1CCCC2` was tested, and the inhibition was inconclusive: 0.1%. `COC(=O)c1csc(S(=O)(=O)N2CCCCC2)c1OC` was tested, and the inhibition was inconclusive: -13.4%. In the case of `CCOc1ccccc1NC(=O)N1CCC(c2nc3ccccc3[nH]2)CC1`, the inhibition is reported as inconclusive: 3.9%. In the case of `O=C(CSCc1cnn(-c2ccccc2)c1-n1cccc1)N1CCN(Cc2ccccc2)CC1`, the inhibition is reported as inconclusive: 9%. For `Cc1cc(C)nc(NC(=O)CN2C(=O)c3ccccc3C2=O)n1`, the inhibition was inconclusive: -3.3%. `O=C(Oc1c(Cl)cc(Cl)c2cccnc12)N1CCOCC1` was tested, and the inhibition was inconclusive: -5.6%. For `CS(=O)(=O)c1ccc(-c2cn3cc(C(=O)O)ccc3n2)cc1`, the inhibition was inactive: 0.4%. In the case of `COCCn1c(=O)[nH]c2cc(C(=O)N3CCN(c4cccc(C)c4C)CC3)ccc2c1=O`, the inhibition is reported as inactive: 3.8%. `Cc1ccc2cccc(OCc3ccc(F)cc3)c2n1` was tested, and the inhibition was inactive: 1.1%. In the case of `COCn1c(-c2cccc(Br)c2)nc2ccccc21`, the inhibition is reported as inconclusive: 4.5%. `CCOC(=O)c1cc2sccc2n1CC(=O)Nc1ccc(OC)cc1OC` was tested, and the inhibition was inactive: -0.5%. `O=S(=O)(c1ccc(Cl)cc1)N1CCC(n2cccc2)CC1` was tested, and the inhibition was inconclusive: 4.6%. In the case of `Cc1ccc(C(=O)C(OC(=O)CNC(=O)c2ccc(Cl)cc2)c2ccccc2)cc1` (configuration not stated), the inhibition is reported as inconclusive: 1.9%. With `Cc1ccc(C2=NNC3(CCOC(C)(C)C3)S2)cc1` (configuration not stated) the inhibition was inactive: -0.8%. For `CC(C)CCn1c(CN2CCN(Cc3ccccc3)CC2)nc2c1c(=O)n(C)c(=O)n2C`, the inhibition was inconclusive: 0.1%. With `CCOc1ccccc1NC(=O)CCC(=O)Nc1nnc(C2CCCCC2)s1` the inhibition was inactive: -1.7%. In the case of `N#Cc1c(-c2ccccc2)cc2nc3ccccc3n2c1N`, the inhibition is reported as inactive: 0%. `CC(=O)c1cccc(NC(=O)NCc2ccc3c(c2)OCO3)c1` was tested, and the inhibition was inconclusive: 6.1%. In the case of `Cc1cc(C(=O)N2CCN(S(=O)(=O)c3ccccc3F)CC2)c(C)o1`, the inhibition is reported as inactive: -0.9%. In the case of `C/C(CCC1CC(C)(C)OC1=O)=N\NC(N)=S` (configuration not stated), the inhibition is reported as inconclusive: -8.3%. With `CC(C)Cn1cc(F)c(=O)n(CC(C)C)c1=O` the inhibition was inactive: 0.3%. With `Cc1cc(C)n2nc(C(=O)OC(C)C(=O)c3cc(C)c(C)cc3C)nc2n1` (configuration not stated) the inhibition was inconclusive: -20.6%. In the case of `Cc1cccc(C(=Cc2ccc([N+](=O)[O-])cc2)C(=O)O)c1`, the inhibition is reported as inactive: 0.1%. With `N#Cc1c(N2CCCCC2)nc(N2CCCCC2)c2c1CCN(Cc1ccccc1)C2` the inhibition was inconclusive: 2.8%. For `CCN(CC)C(=O)CSc1nnc(-c2ccc(S(=O)(=O)N3CCCC3)cc2)o1`, the inhibition was inconclusive: -0.2%. For `NC(=O)NC[C@@H]1CC[C@@H](Cc2ccc(-c3ccccc3)cc2)O1`, the inhibition was inactive: -0.1%. With `CSc1ccccc1N1CCN(C(=O)Nc2ccc3c(c2)NC(=O)CO3)CC1` the inhibition was inconclusive: 1.3%. In the case of `CCCC(C)c1nnc(NC(=O)c2cc(C(=O)OC)cc([N+](=O)[O-])c2)s1` (configuration not stated), the inhibition is reported as inconclusive: 0.5%. In the case of `COc1cccc(/C=N/Nc2nc(-c3cccnc3)nc3ccccc23)c1`, the inhibition is reported as inconclusive: 3.2%. For `C=CCN(c1ccccc1)S(=O)(=O)c1cccc(C(=O)NCc2ccncc2)c1`, the inhibition was inconclusive: 0.2%. With `O=C(Cc1cccs1)Nc1nc(-c2ccccc2)cs1` the inhibition was inconclusive: 12.5%. With `COc1ccccc1-c1nnc(NC(=O)CSc2nncn2C)s1` the inhibition was inactive: 0.3%.

— PubChem BioAssay AID588499 (NMMLSC, 2011)
